{"source": "PubChem BioAssay AID1259425 (University of Nebraska Medical Center, 2018)", "purpose": "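Compare each knockdown with KSR1 silencing using changes in marker transcripts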 (primary screen)", "system": "HCT116 human colon cancer cells", "knock-down reagent": "siRNA pool against human genes, 50 nM siRNA", "measured": "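mRNA of six signature genes measured together by branched-DNA assay after 50 nM siRNA pool, blank removed, divided by geometric mean of two housekeeping genes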", "reading the numbers": "BNIP3L mRNA: higher = more BNIP3L transcript after knockdown", "note": "The whole screen tested about 14,000 reagents; shown is a random part of them. Further read-outs or replicates are left out here. No sequences are given here. Not given: the time to read-out."}
The opening 2 records as a preview:
{"Target gene":"PTPN22 (GeneID 26191)","BNIP3L mRNA, set 1":0.0563}
{"Target gene":"QRFPR (GeneID 84109)","BNIP3L mRNA, set 1":0.0941}

The list itself, from the first entry:
{"Target gene":"PTPN22 (GeneID 26191)","BNIP3L mRNA, set 1":0.0563}
{"Target gene":"QRFPR (GeneID 84109)","BNIP3L mRNA, set 1":0.0941}
{"Target gene":"TTLL7 (GeneID 79739)","BNIP3L mRNA, set 1":0.187}
{"Target gene":"POLR2C (GeneID 5432)","BNIP3L mRNA, set 1":0.223}
{"Target gene":"LRRC2 (GeneID 79442)","BNIP3L mRNA, set 1":0.0758}
{"Target gene":"SPHK1 (GeneID 8877)","BNIP3L mRNA, set 1":0.121}
{"Target gene":"MAPK13 (GeneID 5603)","BNIP3L mRNA, set 1":0.166}
{"Target gene":"DOK4 (GeneID 55715)","BNIP3L mRNA, set 1":0.0756}
{"Target gene":"APOL1 (GeneID 8542)","BNIP3L mRNA, set 1":0.169}
{"Target gene":"MPI (GeneID 4351)","BNIP3L mRNA, set 1":0.0596}
{"Target gene":"C1GALT1C1 (GeneID 29071)","BNIP3L mRNA, set 1":0.085}
{"Target gene":"KDELR2 (GeneID 11014)","BNIP3L mRNA, set 1":0.0931}
